This is one part of the list. Single values are uncertain here, since repeats match poorly.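 U2OS cells carrying ACE2 were mixed with U2OS cells carrying full-length spike, and fusion was scored by imaging as the share of nuclei showing both cell types' fluorescent markers. A compound counts as an inhibitory hit when it is non-toxic and its fusion z-score falls below -3, meaning more than three standard deviations below the plate's DMSO wells.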

For the experiment, the system named is U2OS ACE2 x SARS-CoV-2 spike co-culture. The experiment in a line: cell-cell fusion (fraction fused) z-score vs plate DMSO control; higher = more fusion. The settings on record: 30 µM; 5 h; toxicity class: non-toxic, passed QC.
With `CC(=O)N1CCN(c2ccc(OCC3CO[C@](Cn4ccnc4)(c4ccc(Cl)cc4Cl)O3)cc2)CC1` (some centres undefined), the “cell-cell fusion (z-score)” value is inactive: 0.441.

For the compound `COC1=CC(=O)C[C@@H](C)[C@]12Oc1c(Cl)c(OC)cc(OC)c1C2=O` [Griseofulvin], the “cell-cell fusion (z-score)” value was inactive: 1.66.

Take `Cc1ccc(/C(=C\CN2CCCC2)c2cccc(/C=C/C(=O)O)n2)cc1` [Acrivastine]: the “cell-cell fusion (z-score)” value is inactive: 2.03.

Turning to `O=C(CCc1ccc(O)cc1)c1c(O)cc(O)cc1O[C@@H]1O[C@H](CO)[C@@H](O)[C@H](O)[C@H]1O`, the “cell-cell fusion (z-score)” value is inactive: 2.28.

Regarding `CCCCCCCCCCC/C=C\C(C)(C)/C=C\CCCC(=O)O` [7,7-Dimethyl-(5Z,8Z)-eicosadienoic acid], the “cell-cell fusion (z-score)” value is inactive: 0.386.

Turning to `O=C(O)CCCc1ccc(N(CCCl)CCCl)cc1` [Chloroambucil], the “cell-cell fusion (z-score)” value was inactive: 2.02.

`CCCCCCc1ccc(O)cc1O`: the “cell-cell fusion (z-score)” value is inactive: -0.293.

On to `CC(C(=O)O)c1cccc(CC2CCCC2=O)c1` (centres undefined), for which the “cell-cell fusion (z-score)” value is inactive: 1.37.

With `CC[C@@H](CO)NCCN[C@@H](CC)CO.Cl.Cl` [Ethambutol dihydrochloride], the “cell-cell fusion (z-score)” value is inactive: 2.64.

`CC[C@@H](CO)NCCN[C@@H](CC)CO.Cl.Cl`: the “cell-cell fusion (z-score)” value is inactive: 1.71.

As for `NCCO.O=c1oc2ccccc2c(O)c1Cc1c(O)c2ccccc2oc1=O`, the “cell-cell fusion (z-score)” value is inactive: 2.65.

Consider `CCCc1nn(C)c2c(=O)[nH]c(-c3cc(S(=O)(=O)N4CCN(C)CC4)ccc3OCC)nc12.O=C(O)CC(O)(CC(=O)O)C(=O)O` [Sildenafil], for which the “cell-cell fusion (z-score)” value was inactive: 2.43.

On to `CCCc1nn(C)c2c(=O)[nH]c(-c3cc(S(=O)(=O)N4CCN(C)CC4)ccc3OCC)nc12.O=C(O)CC(O)(CC(=O)O)C(=O)O`, for which the “cell-cell fusion (z-score)” value is inactive: 4.35.

Turning to `CC(=O)Oc1ccccc1C(=O)O` [Acetylsalicylic acid], the “cell-cell fusion (z-score)” value was inactive: 1.56.

With `CC(=O)Oc1ccccc1C(=O)O`, the “cell-cell fusion (z-score)” value was inactive: 1.08.

As to `O=C(O)Cc1ccc(O)c(O)c1` [3,4-Dihydroxyphenylacetic acid], the “cell-cell fusion (z-score)” value was inactive: 1.13.

With `CCOC(=O)[C@H](CCc1ccccc1)N[C@@H](C)C(=O)N1Cc2ccccc2C[C@H]1C(=O)O.Cl` [Quinapril hydrochloride], the “cell-cell fusion (z-score)” value is inactive: 3.61.

`CC(C)NC[C@H](O)c1ccc(O)c(O)c1.O=C(O)[C@@H](O)[C@H](O)C(=O)O` [R(-)-Isoproterenol (+)-bitartrate]: the “cell-cell fusion (z-score)” value is inactive: -2.29.

On to `Cc1cn[nH]c1.Cl` [4-Methylpyrazole hydrochloride], for which the “cell-cell fusion (z-score)” value is inactive: 2.19.

Turning to `Cc1cn[nH]c1.Cl`, the “cell-cell fusion (z-score)” value is inactive: 2.06.

For `CC1(C)OC2=C(C(=O)c3ccccc3C2=O)[C@H](NCc2ccccc2)[C@@H]1O`, the “cell-cell fusion (z-score)” value was active: -4.06.

With `Nc1nc(N)c2nc(CNc3ccc(C(=O)NC(CCC(=O)O)C(=O)O)cc3)cnc2n1` (centres undefined) [Aminopterin], the “cell-cell fusion (z-score)” value was inactive: 1.36.

With `CCS(=O)(=O)CCn1c([N+](=O)[O-])cnc1C` [Tinidazole], the “cell-cell fusion (z-score)” value is inactive: 2.8.

In the case of `COc1ncnc(NS(=O)(=O)c2ccc(N)cc2)c1OC` [Sulfadoxine], the “cell-cell fusion (z-score)” value is inactive: 2.4.

Take `O=P(O)(O)C(O)(Cn1ccnc1)P(=O)(O)O` [Zoledronic Acid]: the “cell-cell fusion (z-score)” value was inactive: 0.0387.

Take `O=C(O)CC[N+](=O)[O-]`: the “cell-cell fusion (z-score)” value is inactive: 0.951.

Regarding `O=C(O)CC[N+](=O)[O-]` [3-Nitropropionic acid], the “cell-cell fusion (z-score)” value is inactive: 3.06.

Consider `CC(=O)Oc1ccc2c(c1)CCC1C2CC[C@@]2(C)C1CC[C@@H]2OC(C)=O` (some centres undefined), for which the “cell-cell fusion (z-score)” value is inactive: 2.48.

As for `Cc1cccc(C)c1NC(=O)c1ccccc1C(=O)O`, the “cell-cell fusion (z-score)” value was inactive: 0.912.

On to `COc1cc2c(cc1O)CC[C@@H]1[C@H]2CC[C@]2(C)[C@H](O)CC[C@@H]12` [2-Methoxyestradiol], for which the “cell-cell fusion (z-score)” value is inactive: 2.41.

With `O=c1ccc2ccccc2o1`, the “cell-cell fusion (z-score)” value was inactive: 2.98.

As to `O.O=P1(N(CCCl)CCCl)NCCCO1` (centres undefined) [Cyclophosphamide monohydrate], the “cell-cell fusion (z-score)” value was inactive: 1.25.

Regarding `COc1ccc2c(c1)OC[C@@H](Cc1ccc(OC)c(OC)c1)[C@H]2O`, the “cell-cell fusion (z-score)” value was inactive: 1.42.

For `COc1cc(Nc2ncc(F)c(Nc3ccc4c(n3)N(COP(=O)(O)O)C(=O)C(C)(C)O4)n2)cc(OC)c1OC` [Fostamatinib], the “cell-cell fusion (z-score)” value is inactive: 1.15.

With `N[C@@H](C(=O)N[C@@H]1C(=O)N2C(C(=O)O)=C(Cl)CS[C@H]12)c1ccccc1.O` [Cefaclor monohydrate], the “cell-cell fusion (z-score)” value was inactive: 2.68.

For the compound `CCCCC(=O)O[C@]1(C(=O)CO)[C@@H](C)C[C@H]2[C@@H]3CCC4=CC(=O)C=C[C@]4(C)[C@@]3(F)[C@@H](O)C[C@@]21C` [Betamethasone 17-valerate], the “cell-cell fusion (z-score)” value was inactive: 1.25.

As for `O=C(NC(O)C(Cl)(Cl)Cl)NC(O)C(Cl)(Cl)Cl` (centres undefined), the “cell-cell fusion (z-score)” value was inactive: 1.42.

Regarding `O=c1[nH]c2ccccc2n1CCCN1CCC(n2c(=O)[nH]c3cc(Cl)ccc32)CC1`, the “cell-cell fusion (z-score)” value is inactive: 3.49.

Consider `O=c1[nH]c2ccccc2n1CCCN1CCC(n2c(=O)[nH]c3cc(Cl)ccc32)CC1` [Domperidone], for which the “cell-cell fusion (z-score)” value is inactive: 4.26.

For the compound `CN1CC[C@@]2(C)c3cc(OC(=O)Nc4ccccc4)ccc3N(C)[C@@H]12` [Phenserine], the “cell-cell fusion (z-score)” value was inactive: -1.13.

As to `CCOc1ccccc1C(N)=O`, the “cell-cell fusion (z-score)” value was inactive: 3.06.

In the case of `CCc1cccc(N(C)C(=N)Nc2cccc3ccccc23)c1.Cl`, the “cell-cell fusion (z-score)” value is inactive: -0.136.

Turning to `O=C(O)c1nn(Cc2ccc(Cl)cc2Cl)c2ccccc12`, the “cell-cell fusion (z-score)” value was inactive: 1.34.

For the compound `Br.CCCN(CCC)CCc1ccc(O)c(O)c1` [Dipropyldopamine hydrobromide], the “cell-cell fusion (z-score)” value was inactive: -0.657.

Consider `CCCCCC(O)CCCC(=O)[O-].[Na+]` (centres undefined) [5-hydroxydecanoic acid sodium], for which the “cell-cell fusion (z-score)” value was inactive: 2.16.

In the case of `CN1C(C)(C)CCCC1(C)C.O=C(O)C(O)C(O)C(=O)O`, the “cell-cell fusion (z-score)” value was inactive: 2.42.

Turning to `CN(C)CCOC(C)(c1ccccc1)c1ccccn1.O=C(O)CCC(=O)O` (centres undefined) [Doxylamine succinate], the “cell-cell fusion (z-score)” value was inactive: 2.18.

Take `Cc1oncc1C(=O)Nc1ccc(C(F)(F)F)cc1` [Leflunomide]: the “cell-cell fusion (z-score)” value is inactive: 2.52.

Regarding `Cc1oncc1C(=O)Nc1ccc(C(F)(F)F)cc1`, the “cell-cell fusion (z-score)” value was inactive: 0.768.

The values above are taken from the supplement of paper PMC8104966.
